According to patent US4318905A (Syntex (U.S.A.) Inc., priority 1980, dated 1982):

Columns and labels:
[1] = general procedure: Boc solid-phase peptide synthesis; benzhydrylamino-polystyrene-divinylbenzene resin; DCC/HBT; settings: whole synthesis, scale 1.0 mmol, HF salt
[2] = general procedure: Boc solid-phase peptide synthesis; Boc-Pro-O-Resin (chloromethyl-polystyrene/1% divinylbenzene); DCC/HBT; settings: whole synthesis, scale 1.4 mmol, acetic acid addition salt

Row | Substance | crude mass [1] [g] | crude mass [2] [g]
1 | (pyro)-Glu-His-Trp-Ser-Tyr-3-(2-benzimidazolyl)-D-alanyl-Leu-Arg-Pro-Gly-NH2 | 0.4 | –
2 | pyro-glutamyl-histidyl-tryptophyl-seryl-tyrosyl-3-(2-benzimidazolyl)-D-alanyl-leucyl-arginyl-proline ethylamide | – | 1.10
